# Experimental data as given in the supplement of paper PMC8256030.
# Several values for one entry are separate records, joined by “and”; a condition that tells them apart may be missing. Identical values can stand only once. This is one part of the list. This data set is noisy: repeats of one test often differ as much as different tests do.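 HEK293T cells were given each compound shortly before transfection with a reporter in which red mCherry is followed by the SARS-CoV-2 frameshift element and then GFP in the −1 frame, so GFP appears only after frameshifting.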
# Tested on: HEK293T
# Experiment: percent viability (nuclei count) relative to control; higher = more viable cells
# Details: 10 µM; 24 h
row,SMILES,percent viability
1,Nc1nc(/C(=C/CC(=O)O)C(=O)N[C@@H]2C(=O)N3C(C(=O)O)=CCS[C@H]23)cs1 [ceftibuten],248%
2,CCCCN1CCCC1C(=O)Nc1c(C)cc(C)cc1C (stereo unspecified) [bumecaine],202%
3,C#C[C@]1(O)CC[C@H]2[C@@H]3CCC4=CC(=O)CC[C@@H]4[C@H]3CC[C@@]21CC [levonorgestrel],260% and 144%
4,O=C(O)c1ccc[n+]([O-])c1,353%
5,Cn1c(=O)c2c(ncn2CCN2CCC(c3c[nH]c4ccccc34)CC2)n(C)c1=O [tameridone],222%
6,Nc1nc(=O)n([C@@H]2O[C@H](CO)[C@@H](O)[C@@H]2F)cc1I [fiacitabine],183%
7,CCCCC[C@H](O)/C=C/[C@H]1[C@H](O)CC(=O)[C@@H]1CCCCCCC(=O)O [Alprostadil],201%
8,CC(C)(CO)C(O)C(=O)NCCCO (stereo unspecified) [panthenol],280%
9,CCOc1ccc(NC(=S)Nc2ccc(OCC)cc2)cc1 [etocarlide],122%
10,CCCCN(CCCC)CCC(O)c1cc2c(Cl)cc(Cl)cc2c2cc(C(F)(F)F)ccc12 (stereo unspecified) [halofantrine],178%
11,CN(C)[C@@H]1C(=O)C(C(=O)NCNCCCC[C@H](N)C(=O)O)=C(O)[C@@]2(O)C(=O)C3=C(O)c4c(O)cccc4[C@@](C)(O)[C@H]3C[C@@H]12 [Lymecycline],236%
12,NS(=O)(=O)c1cc2c(cc1Cl)NC(C(Cl)Cl)NS2(=O)=O (stereo unspecified) [trichlormethiazide],107% and 261%
13,Nc1ccc(S(=O)(=O)Nc2cncc(Cl)n2)cc1 [sulfaclozine],201%
14,CO[C@H]1/C=C/O[C@@]2(C)Oc3c(C)c(O)c4c(O)c(c(/C=N/N5CCN(C6CCCC6)CC5)c(O)c4c3C2=O)NC(=O)/C(C)=C\C=C\[C@H](C)[C@H](O)[C@@H](C)[C@@H](O)[C@@H](C)[C@H](OC(C)=O)[C@@H]1C [Priftin],215%
15,[O-][S+](c1cc(Cl)cc(Cl)c1O)c1cc(Cl)cc(Cl)c1O [bithionoloxide],180%
16,CC(NNC(=O)c1ccccc1)c1ccccc1 (stereo unspecified) [benmoxin],164%

row,SMILES,percent viability
1,c1ccc(Cn2c(N3CCNCC3)nc3ccccc32)cc1 [lerisetron],164%
2,CN1c2cc(O)c(N=NC(N)=O)cc2CC1S(=O)(=O)O (stereo unspecified) [carbazochrome sodium sulfonate],107%
3,c1ccc(C2CN3CCSC3=N2)cc1 (stereo unspecified) [tetramisole],187%
4,N=C(N)c1ccc(OCCCCCCOc2ccc(C(=N)N)cc2)cc1 [hexamidine],290%
5,CC[C@H]1OC(=O)C[C@@H](O)[C@H](C)[C@@H](O[C@@H]2O[C@H](C)[C@@H](O[C@H]3C[C@@](C)(O)[C@@H](O)[C@H](C)O3)[C@H](N(C)C)[C@H]2O)[C@@H](CC=O)C[C@@H](C)C(=O)/C=C/C(C)=C/[C@@H]1CO[C@@H]1O[C@H](C)[C@@H](O)[C@@H](OC)[C@H]1OC,137%
6,C[C@H](NC(=O)[C@H](CC(=O)O)NC(=O)CNC(=O)CNC(=O)[C@H](C)NC(=O)[C@@H](N)Cc1c[nH]c2ccccc12)C(=O)N[C@@H](CO)C(=O)NCC(=O)N[C@@H](CCC(=O)O)C(=O)O [emideltide],123%
7,CC[C@@H]([C@H](C)O)n1ncn(-c2ccc(N3CCN(c4ccc(OC[C@@H]5CO[C@@](Cn6cncn6)(c6ccc(F)cc6F)C5)cc4)CC3)cc2)c1=O [Posaconazole],410%
8,CN1CCC(OC(=O)C(Oc2ccc(Cl)cc2)Oc2ccc(Cl)cc2)CC1 [lifibrate],182%
9,Clc1ccc2c(c1)C(N1CCNCC1)=Nc1ccccc1O2 [amoxapine],186% and 404%
10,COc1ccc2nc(NC(=O)Nc3ccccc3)sc2c1 [frentizole],103%
11,COc1cc(CNC(=O)CCCC/C=C/C(C)C)ccc1O [capsaicin],157% and 402%
12,CCc1cc(Cl)c(OC)c(C(=O)NC[C@@H]2CCCN2CC)c1O [eticlopride],110%
13,CO[C@H]1/C=C/O[C@@]2(C)Oc3c(C)c(O)c4c(O)c(c(/C=N/N5CCN(C)CC5)c(O)c4c3C2=O)NC(=O)/C(C)=C\C=C\[C@H](C)[C@H](O)[C@@H](C)[C@@H](O)[C@@H](C)[C@H](OC(C)=O)[C@@H]1C [Rifadin],189%
14,CN1CCN(c2ncc(-c3cc(Cl)cc(Cl)c3Cl)c(N)n2)CC1 [sipatrigine],133%
15,CCOC(=O)C1=C[C@]2(CC)CCCN3CCc4c(n1c1ccccc41)[C@@H]32 [vinpocetine],84.1%
